Consider two substances from article doi:10.1101/2020.08.14.250746.

Sequences of proteins named here, by UniProt entry; tags and fusion partners are left off.
UniProt O88751: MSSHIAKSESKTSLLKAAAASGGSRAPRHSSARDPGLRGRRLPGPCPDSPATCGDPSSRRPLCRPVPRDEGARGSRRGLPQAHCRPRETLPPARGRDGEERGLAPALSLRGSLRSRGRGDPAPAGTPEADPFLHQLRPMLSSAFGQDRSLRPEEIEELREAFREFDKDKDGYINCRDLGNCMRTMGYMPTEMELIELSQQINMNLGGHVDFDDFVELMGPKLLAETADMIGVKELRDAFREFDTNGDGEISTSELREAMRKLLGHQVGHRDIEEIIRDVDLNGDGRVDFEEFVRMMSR
UniProt Q64331: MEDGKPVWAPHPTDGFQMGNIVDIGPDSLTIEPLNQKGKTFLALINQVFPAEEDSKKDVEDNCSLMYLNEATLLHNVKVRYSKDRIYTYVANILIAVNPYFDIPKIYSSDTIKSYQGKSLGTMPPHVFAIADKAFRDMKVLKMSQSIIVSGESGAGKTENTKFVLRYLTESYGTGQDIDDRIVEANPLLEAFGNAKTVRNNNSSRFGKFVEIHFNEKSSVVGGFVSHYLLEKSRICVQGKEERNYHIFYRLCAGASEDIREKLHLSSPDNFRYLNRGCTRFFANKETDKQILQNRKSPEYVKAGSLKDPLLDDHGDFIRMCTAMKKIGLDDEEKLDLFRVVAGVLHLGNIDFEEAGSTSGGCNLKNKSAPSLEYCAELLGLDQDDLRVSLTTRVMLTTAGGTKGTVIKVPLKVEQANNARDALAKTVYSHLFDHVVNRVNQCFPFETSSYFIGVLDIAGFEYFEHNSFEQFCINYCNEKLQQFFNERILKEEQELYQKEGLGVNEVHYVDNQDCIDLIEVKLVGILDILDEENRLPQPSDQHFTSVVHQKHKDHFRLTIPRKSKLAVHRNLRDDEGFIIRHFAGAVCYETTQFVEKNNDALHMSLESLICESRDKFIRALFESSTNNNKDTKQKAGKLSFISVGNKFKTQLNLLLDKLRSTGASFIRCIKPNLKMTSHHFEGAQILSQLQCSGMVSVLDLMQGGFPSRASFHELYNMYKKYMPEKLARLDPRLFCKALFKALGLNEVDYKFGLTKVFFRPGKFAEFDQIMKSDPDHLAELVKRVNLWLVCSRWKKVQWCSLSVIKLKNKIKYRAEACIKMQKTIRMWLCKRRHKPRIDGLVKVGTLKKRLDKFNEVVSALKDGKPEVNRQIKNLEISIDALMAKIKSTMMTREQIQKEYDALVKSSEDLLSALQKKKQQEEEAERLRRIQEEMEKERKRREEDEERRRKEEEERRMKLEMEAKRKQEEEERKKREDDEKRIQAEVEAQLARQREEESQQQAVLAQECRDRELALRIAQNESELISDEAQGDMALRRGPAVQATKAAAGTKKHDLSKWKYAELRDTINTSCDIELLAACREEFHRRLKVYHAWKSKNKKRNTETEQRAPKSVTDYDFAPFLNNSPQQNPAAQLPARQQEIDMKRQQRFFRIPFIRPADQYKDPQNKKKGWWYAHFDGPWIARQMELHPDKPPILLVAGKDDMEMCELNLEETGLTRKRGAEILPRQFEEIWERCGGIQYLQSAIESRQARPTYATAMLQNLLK
UniProt P21271: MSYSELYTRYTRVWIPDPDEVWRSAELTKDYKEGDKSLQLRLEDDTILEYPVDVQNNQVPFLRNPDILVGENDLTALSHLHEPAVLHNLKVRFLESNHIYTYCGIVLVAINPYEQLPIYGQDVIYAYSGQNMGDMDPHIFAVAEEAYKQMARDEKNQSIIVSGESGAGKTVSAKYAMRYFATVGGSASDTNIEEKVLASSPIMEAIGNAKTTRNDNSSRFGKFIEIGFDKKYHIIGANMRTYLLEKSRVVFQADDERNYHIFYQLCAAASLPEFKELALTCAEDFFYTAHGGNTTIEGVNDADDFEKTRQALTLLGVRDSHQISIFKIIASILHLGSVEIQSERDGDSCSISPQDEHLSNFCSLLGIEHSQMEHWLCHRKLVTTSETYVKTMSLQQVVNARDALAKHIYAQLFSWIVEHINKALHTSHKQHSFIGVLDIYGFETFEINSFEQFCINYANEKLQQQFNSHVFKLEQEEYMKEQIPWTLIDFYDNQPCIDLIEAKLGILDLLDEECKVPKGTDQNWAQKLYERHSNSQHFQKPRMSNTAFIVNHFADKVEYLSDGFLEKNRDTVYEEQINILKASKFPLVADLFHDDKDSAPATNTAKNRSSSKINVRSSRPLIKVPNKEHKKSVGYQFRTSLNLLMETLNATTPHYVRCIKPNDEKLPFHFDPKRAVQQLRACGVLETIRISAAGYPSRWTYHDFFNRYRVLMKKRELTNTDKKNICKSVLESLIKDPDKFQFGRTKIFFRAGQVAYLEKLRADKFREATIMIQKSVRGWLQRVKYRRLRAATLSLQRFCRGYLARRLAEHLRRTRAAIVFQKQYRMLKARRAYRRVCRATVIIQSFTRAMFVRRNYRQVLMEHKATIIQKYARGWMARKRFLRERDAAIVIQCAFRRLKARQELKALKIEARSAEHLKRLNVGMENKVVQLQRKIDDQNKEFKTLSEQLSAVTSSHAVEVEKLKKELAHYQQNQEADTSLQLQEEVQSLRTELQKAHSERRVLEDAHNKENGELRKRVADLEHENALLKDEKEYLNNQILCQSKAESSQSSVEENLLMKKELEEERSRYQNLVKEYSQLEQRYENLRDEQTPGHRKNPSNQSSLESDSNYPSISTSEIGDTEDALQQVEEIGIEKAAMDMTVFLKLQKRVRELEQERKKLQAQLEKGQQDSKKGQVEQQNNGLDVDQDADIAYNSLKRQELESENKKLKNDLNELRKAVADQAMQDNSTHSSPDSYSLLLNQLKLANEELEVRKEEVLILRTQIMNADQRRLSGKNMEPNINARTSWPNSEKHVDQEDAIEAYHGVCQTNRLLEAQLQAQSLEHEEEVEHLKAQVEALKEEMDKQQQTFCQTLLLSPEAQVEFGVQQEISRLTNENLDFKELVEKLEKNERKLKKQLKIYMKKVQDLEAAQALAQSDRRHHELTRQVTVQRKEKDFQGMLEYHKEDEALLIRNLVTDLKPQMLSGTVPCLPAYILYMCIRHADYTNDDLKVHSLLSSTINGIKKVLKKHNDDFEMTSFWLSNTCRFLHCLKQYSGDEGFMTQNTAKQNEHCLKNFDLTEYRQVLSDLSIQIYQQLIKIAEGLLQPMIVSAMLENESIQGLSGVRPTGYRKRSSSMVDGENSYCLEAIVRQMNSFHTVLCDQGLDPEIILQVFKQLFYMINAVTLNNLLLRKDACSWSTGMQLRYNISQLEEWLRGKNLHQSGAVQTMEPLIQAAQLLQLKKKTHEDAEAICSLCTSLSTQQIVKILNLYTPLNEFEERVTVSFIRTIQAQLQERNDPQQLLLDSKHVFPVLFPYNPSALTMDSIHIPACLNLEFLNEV

The assay has as its target biotinylated GFP-caldendrin (UniProt O88751). Kind of assay: affinity purification with mass spectrometry.

Results are given in words; binding and its absence hold for the method and conditions named. In cells and extracts the contact can be indirect. Here binding means that the protein was enriched with, or labelled near, the bait; the list need not be complete.

For “myosin VI (endogenous, mouse brain) (from UniProt Q64331 1-1262)”, the binding entry was “binds”. With “myosin Vb (endogenous, mouse brain) (from UniProt P21271 1-1818)”, the binding entry is given as “binds”.
